# Assay results

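Luminescence from an EWS-FLI1 target-promoter (NR0B1) reporter, set against a CMV-promoter reporter, two days after silencing single genes in TC32 Ewing sarcoma cells. Each siRNA was applied at 20 nM. A z-score of the log NR0B1-over-CMV signal, less the median of siRNAs with the same seed; more negative means a stronger specific loss of the NR0B1 reporter.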

The strongest results of the screen are mostly left out here. Sequences are the guide (antisense) strand, without overhang.

siRNA,target gene,seed-corrected z-score
AUUGCAGUUACUGUAACCC,GABRR1,0.4067
UAUCUGAUGUCAUAUUCUC,C22orf42,0.1874
UCCAUGUUAAAUGGUAUUC,ZNF33B,-0.5269
UUGUUAUAAACUUUGCUCU,TRIM36,0.5254
UGAUAUUUGAACAAGGGAC,LOC387939,0.09211
UAAUUUCGUAAGGUGAGUG,SNAP47,-0.6118
UUAGGUGUUCCUCUGAACU,EDN1,-0.1443
UUUCACAUCUAUAUAAGGC,LOC100288842,-0.6183
AACCGGUAGGGAAAGGACC,WBP1,-0.1429
UUAUUCUCAAGUUGUUCAC,EMB,-0.4259
UCCGUGUAAUACUCUAGGG,DGKD,-1.183
UAUUUGCCCAAAGCUUUCU,EEF1B2,-0.4873
UGAAGUUCAAGAUUAGAGC,ZNF233,0.1185
AUACGCACUGCAAUAAUUG,NEUROD6,0.05731
UUCCUAAGAAGGUCAAUUC,TDRD9,-0.4425
UCUGUAAUCAGUUCUGCUC,LOC283788,-0.3173
UCAUGUCUGGGUCAAGUGC,PRR12,-0.4043
UAUUUCUCCUGAGACGGUC,LOC100289495,-0.03743
UUCUGUAUAAUUCCGUAUC,SLCO5A1,0.2788
UUCUAUUGAAUAUUUACUG,EID2B,-0.7838
UACUCAUCCACCGUUAUGG,MPPED2,-0.4628
AAGAUAACCAAUAUGGACC,GCH1,-0.3434
UAUGCGUUUUCCAUCAGGG,FLT1,-0.09361
UACUUUUGAUGGUAGGUGG,PGM2L1,-0.2622
AAAGAGAUGAGCAAUGCUC,TRUB1,0.5706
UCUGAAUACAAUAAUCAGC,HTATSF1,0.7217
UAUUUGGUUUGUUCUUAUC,SCCPDH,0.117
CACUCGUCCACCACCAUGU,GDF1,0.5626
UCUCGUCCCACAUAAAGCC,CTAGE5,-0.5862
AUCAAUACAAUCAAAUGCC,PUM3,-1.821
AAGGGUACUAUUAAGUUCG,NR0B1,-0.672
UCAUAUUUCACAGGCCGGC,MAP3K3,0.1847
AUACUUGUGAAUGGAGUGC,MUC17,-1.538
UUCCUUAGCCGUUAUCACG,MYF6,0.5252
UUCCUAACUAUAGCUAGGC,RABL2B,-0.1568
UGACAUCCUGUUACGAUCG,WDR7,0.6015
UCUUGUCACAAAUUCGUCG,ALDH1L2,-0.0551
UCUGAUACUUGAGUACUGG,ANKUB1,0.2817
UUCGGUUCCAGAUAGGAAA,SFXN2,0.9157
ACUGGUAGGAUUGCGGUGG,AURKAIP1,-0.7376
AAUUUGACCAACACGAUGG,HTR3B,-0.4565
AAGAGUGUAAGGGUCCUUC,TCF4,0.0576
GUAUGUGGCAAUAUCAUCA,SSX1,0.3453
UAUGAUGACCUGAACUUUG,OR13F1,-0.5219
AAGGGUAUCAGGAGGUAGC,RPP25L,-0.802
UUCUGUAUCCUCCAUCAUC,TRMT13,-0.2547
UGUGAGUCUAUUCUUAUGU,PGM5P4,-0.3208
UCAUUGUCCGAAGUGUAGC,OR5T1,-0.6467
UUCUUGAUGAGGCACGGCU,WIZ,-0.2466
AUGUUAACCACGGUUCUGU,SPR,-1.523
AAAGUAAUUCUUGGUGUCC,LSS,-0.4563
UUCCCGGUCAUUUUCCACC,SCAF4,0.3993
AACGGGAACAAAGAUUAUG,RPS7,1.595
UAACAUAUCGCGGAUGAGA,NR2F1,0.5499
UUAAUAUCGACAGUUUGGG,FAM189A1,0.2558
UGAAUAUUAAGAGGGCGGC,RPL10P8,0.2466
UAGUCUAUUCAAUCGAAUC,PCNX1,0.8924
UCAUCUACAGUGUUGACCG,MPHOSPH9,0.4546
AAAUAGGUCAUGUAAACAG,MAFG,-1.01
CAGCCCUCCACACUCUUUG,TMEM89,-1.792
UUGGUAUUUACCAUGCUCU,CDC37,1.229
UAAUCCUCCAUAUUGAGCC,NPR3,-0.1779
UAAGAUGCAAUCUUGCACG,ARIH2OS,-0.7506
UCUGUUUUCAGCUUGAUUA,PRSS58,-0.00273
UAUGGGACAUUCCUUAAUC,RPL31P50,-0.52
AAUAUAGUCACCAAUGUUC,GRIP2,-0.6661
AUCUUUGCAGCACUCCUCC,LIX1L,-0.3909
ACAGUUGUCAGCAUGGAUG,P3H2,-0.291
UUUUUAGCCGCUCCAAAGC,C21orf33,0.04511
UUCCAUUCCACAGUCUCUC,LINC00944,0.8654
UUUGUUACAUAACCAGCCG,QTRTD1,0.2924
UCCAGGCUUAGGACACUGC,ACCS,-0.04392
AUCGGGAUGAAAGCAGAGG,WRAP53,0.009854
UCUGUAUCCAUUUCGUCUU,MLANA,-0.06361
UAUUCUUUGAAUGAGAUUA,NEUROG3,0.1613
UUGUCUCUCACAGAAACCC,UBE2F,0.3854
UACAAUUCCUCUAUCAUCC,SKIV2L2,0.08522
UUGUCAAUAGCUACCACAC,TSC22D1,-0.1706
UUGAAUUCUUGAUAUAUGC,CLIC4,0.488

Once more, the final 6:

Result for UCUGUAUCCAUUUCGUCUU against MLANA was seed-corrected z-score -0.06361.
Result for UAUUCUUUGAAUGAGAUUA against NEUROG3 was seed-corrected z-score 0.1613.
Result for UUGUCUCUCACAGAAACCC against UBE2F was seed-corrected z-score 0.3854.
Result for UACAAUUCCUCUAUCAUCC against SKIV2L2 was seed-corrected z-score 0.08522.
Result for UUGUCAAUAGCUACCACAC against TSC22D1 was seed-corrected z-score -0.1706.
Result for UUGAAUUCUUGAUAUAUGC against CLIC4 was seed-corrected z-score 0.488.

From PubChem BioAssay record AID1159506 (NCATS, 2015).